Substitutions are numbered along the chain they refer to. No constants are given. Whether binding was seen depends on the method and setting. In cells and extracts the contact can be indirect. Some binding calls cover weakened binding; strength is not graded here. Where a sequence is shown, tags or fusion partners need not be part of it.
Experiments:
Assay in all cases: co-IP; HEK293T cells co-transfected with Flag-Smad3 and HA-ALK7 (wild type or variant) for 2 days; 1 mg whole cell lysate with 1 μg rabbit HA antibody at RT for 2 h, Protein A/G magnetic beads at RT for 1 h, three washes with IP Lysis/Wash buffer; immunoblotting
HA-tagged wild type ALK7 = molecular target: T1, HA-tagged wild type ALK7 (UniProt Q8NER5)
T1 sequence: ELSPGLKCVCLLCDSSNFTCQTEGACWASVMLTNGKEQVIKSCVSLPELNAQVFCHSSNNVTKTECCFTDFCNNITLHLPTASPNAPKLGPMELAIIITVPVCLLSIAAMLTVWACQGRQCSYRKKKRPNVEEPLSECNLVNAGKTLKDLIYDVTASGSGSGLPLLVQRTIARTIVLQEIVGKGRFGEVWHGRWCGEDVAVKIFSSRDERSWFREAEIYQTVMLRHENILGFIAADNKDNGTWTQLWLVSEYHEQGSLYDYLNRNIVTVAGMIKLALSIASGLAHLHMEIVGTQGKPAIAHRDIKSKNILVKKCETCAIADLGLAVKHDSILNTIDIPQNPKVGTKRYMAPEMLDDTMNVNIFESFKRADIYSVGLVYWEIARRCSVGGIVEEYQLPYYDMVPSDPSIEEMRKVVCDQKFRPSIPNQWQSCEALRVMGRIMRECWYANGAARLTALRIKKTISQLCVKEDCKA

The chains behind the UniProt entries cited, without tags or fusion partners.
UniProt P84025: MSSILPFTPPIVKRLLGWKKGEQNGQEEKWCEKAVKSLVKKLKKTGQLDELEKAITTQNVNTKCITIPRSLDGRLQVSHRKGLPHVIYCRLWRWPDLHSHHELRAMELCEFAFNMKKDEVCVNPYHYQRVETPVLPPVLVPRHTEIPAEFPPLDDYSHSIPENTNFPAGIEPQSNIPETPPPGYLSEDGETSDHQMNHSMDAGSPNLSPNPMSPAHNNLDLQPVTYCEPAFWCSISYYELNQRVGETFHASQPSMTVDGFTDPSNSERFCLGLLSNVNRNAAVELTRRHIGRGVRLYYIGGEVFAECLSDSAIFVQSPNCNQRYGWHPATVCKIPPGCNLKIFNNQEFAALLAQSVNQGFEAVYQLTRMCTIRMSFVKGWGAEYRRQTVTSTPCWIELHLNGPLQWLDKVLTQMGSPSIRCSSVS

HA-tagged ALK7 N150H = molecular target: T2, HA-tagged ALK7 N150H (UniProt Q8NER5)
T2 sequence: T1 sequence with N130H

HA-tagged ALK7 I195T = molecular target: T3, HA-tagged ALK7 I195T (UniProt Q8NER5)
T3 sequence: T1 sequence with I175T

HA-tagged ALK7 I482V = molecular target: T4, HA-tagged ALK7 I482V (UniProt Q8NER5)
T4 sequence: T1 sequence with I462V

binding (HA-tagged wild type ALK7): binds
binding (HA-tagged ALK7 N150H): binds
binding (HA-tagged ALK7 I195T): binds
binding (HA-tagged ALK7 I482V): binds
Substance: Flag-tagged Smad3 (from UniProt P84025 1-425)

Source: PMC10863331
